Taken from: PubChem BioAssay AID652259 (Drosophila RNAi Screening Center, 2013)

- Test: 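Identify new Wingless signalling regulators in fly cells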 (primary screen)
- Cells: Drosophila clone 8 imaginal disc epithelial cells
- Reagent: long dsRNA against Drosophila genes
- Challenge: pathway stimulated by co-transfected Wingless expression plasmid
- Measurement: 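Firefly luciferase from a tcf-site Wingless reporter, measured alongside co-transfected Renilla luciferase that tracks transfection; pathway stimulated by a Wingless plasmid; the firefly-to-Renilla ratio is not deposited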
- Scale: firefly reporter light: higher = more Wg reporter light, before normalisation; Renilla control light: higher = more transfected or surviving cells
- Call rule: 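Strong candidates differ from their plate mean by at least two out of four per-plate statistical tests; weak candidates meet just one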
- Calls: active = candidate regulator (raises or lowers reporter); inactive = not a candidate
The screen tested about 22,000 reagents; this is a random part of those with a known target gene and a result. In the full data, 233 (1.1%) were called active. 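Light values are raw, unnormalised plate reads; the ratio scores behind the reporter calls were not deposited.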 The numbers tell different reagents against one gene apart. Names joined by + are all predicted targets of the reagent. No sequences are given here. Not stated in the record: the amount of reagent, the time to read-out, the dose of the treatment.

| Gene | reagent no. | reporter change call, replicate 1 | firefly reporter light, replicate 1 | firefly reporter light, replicate 2 | Renilla control light, replicate 1 | Renilla control light, replicate 2 | Call |
| --- | --- | --- | --- | --- | --- | --- | --- |
| Ir52c (Ionotropic receptor 52c) | 1 | – | 3.67e5 | 4.18e5 | 1.45e5 | 1.60e5 | inactive |
| Gnpnat (Glucosamine-phosphate N-acetyltransferase) | 1 | – | 3962 | 8444 | 1570 | 3024 | inactive |
| Ccp84Ac | 1 | – | 15714 | – | 4610 | – | inactive |
| CG12818 | 1 | – | 9702 | – | 2704 | – | inactive |
| fd3F + CR42499 | 1 | – | 19585 | – | 11792 | – | inactive |
| fd3F + CR42499 | 2 | – | 20208 | – | 10449 | – | inactive |
| CG10467 | 1 | – | 992 | 8456 | 826 | 2876 | inactive |
| CG6073 | 1 | – | 3929 | 10124 | 1639 | 3745 | inactive |
| CG6073 | 2 | – | 3.95e5 | 3.83e5 | 2.02e5 | 1.62e5 | inactive |
| CG5376 | 1 | – | 34412 | – | 7815 | – | inactive |
| CG4074 | 1 | – | 18520 | – | 4657 | – | inactive |
| CG5577 | 1 | – | 4066 | – | 1593 | – | inactive |
| KP78a + KP78b | 1 | – | 16916 | – | 3853 | – | inactive |
| KP78a + KP78b | 2 | – | 15360 | – | 3090 | – | inactive |
| ranshi | 1 | – | 15356 | – | 4045 | – | inactive |
| CG7264 | 1 | – | 6134 | – | 2129 | – | inactive |
| CG8230 | 1 | – | 2824 | 7881 | 582 | 1892 | inactive |
| CG13775 | 1 | – | 2692 | 6155 | 907 | 947 | inactive |
| CG31805 | 1 | – | 22688 | – | 10012 | – | inactive |
| fz4 (frizzled 4) | 1 | Wg reporter activity lowered | 13672 | – | 8978 | – | active |
| CG10909 | 1 | – | 16600 | – | 5589 | – | inactive |
| Vps60 (Vacuolar protein sorting 60) | 1 | – | 10953 | – | 4004 | – | inactive |
| Mapmodulin | 1 | – | 10983 | – | 2010 | – | inactive |
| CG18269 | 1 | – | 3174 | 5303 | 810 | 1913 | inactive |
| TotA (Turandot A) | 1 | – | 2816 | – | 1520 | – | inactive |
| Cpr47Ee (Cuticular protein 47Ee) | 1 | Wg reporter activity raised | 3452 | – | 946 | – | inactive |
| M1BP (Motif 1 Binding Protein) | 1 | – | 2804 | – | 912 | – | inactive |
| GluClalpha (Glutamate-gated chloride channel subunit alpha) | 1 | – | 15977 | – | 4434 | – | inactive |
| Cyp4g1 (Cytochrome P450 4g1) | 1 | – | 1963 | 6227 | 900 | 1477 | inactive |
| CG15022 | 1 | – | 1225 | 8119 | 1143 | 3601 | inactive |
| CG18577 | 1 | – | 11792 | – | 4442 | – | inactive |
| CG42809 | 1 | – | 2603 | 6992 | 1081 | 2886 | inactive |
| del (deadlock) | 1 | – | 14132 | – | 4043 | – | inactive |
| hoe1 (hoepel1) | 1 | – | 7177 | – | 3517 | – | inactive |
| hoe1 (hoepel1) | 2 | – | 3397 | 6876 | 1088 | 1130 | inactive |
| hoe1 (hoepel1) | 3 | – | 3860 | 8544 | 954 | 992 | inactive |
| arm (armadillo) | 1 | Wg reporter activity lowered | 336 | 521 | 1728 | 3136 | active |
| CG10562 | 1 | – | 3504 | 5376 | 1860 | 864 | inactive |
| G6P (Glucose-6-Phosphatase) | 1 | – | 1793 | 6832 | 711 | 2803 | inactive |
| CG31867 | 1 | – | 2282 | 3973 | 1147 | 1997 | inactive |
| Cbs (Cystathionine beta-synthase) | 1 | – | 2117 | 5509 | 829 | 2594 | inactive |
| Amy-d + Amy-p | 1 | – | 20985 | – | 11681 | – | inactive |
| mRpL36 (mitochondrial ribosomal protein L36) | 1 | – | 1795 | 4932 | 1056 | 2103 | inactive |
| escl | 1 | – | 14060 | – | 5226 | – | inactive |
| Ssl1 (Suppressor of stem-loop mutation) | 1 | – | 10833 | – | 2386 | – | inactive |
| Cpr65Eb (Cuticular protein 65Eb) | 1 | – | 2535 | 7916 | 1572 | 2902 | inactive |
| CG15249 | 1 | – | 21595 | – | 11203 | – | inactive |
| CG18278 + CG30059 | 1 | – | 21493 | – | 18197 | – | inactive |
| arx (asterix) | 1 | – | 4123 | – | 1626 | – | inactive |
| betaNACtes2 (Nascent-associated complex beta-subunit-like, testis 2) | 1 | – | 13015 | – | 6893 | – | inactive |
| Ktch (Ketchup) | 1 | – | 4370 | – | 2292 | – | inactive |
| pan (pangolin) | 1 | Wg reporter activity lowered | 338 | 448 | 956 | 1590 | active |
| pan (pangolin) | 2 | – | 4.61e5 | 4.30e5 | 1.62e5 | 1.24e5 | inactive |
| sob | 1 | – | 2918 | 6307 | 854 | 739 | inactive |
| beat-IIb (beaten path IIb) | 1 | – | 5445 | – | 342 | – | inactive |
| beat-IIb (beaten path IIb) | 2 | – | 16841 | – | 3885 | – | inactive |
| beat-IIb (beaten path IIb) | 3 | – | 16348 | – | 4723 | – | inactive |
| out (outsiders) | 1 | – | 2456 | 6912 | 940 | 2450 | inactive |
| Fer3HCH (Ferritin 3 heavy chain homologue) | 1 | – | 22148 | – | 12469 | – | inactive |
| CG31157 | 1 | – | 4.37e5 | 5.52e5 | 2.14e5 | 2.37e5 | inactive |
| CG11585 | 1 | – | 16442 | – | 8829 | – | inactive |
| Epp (Ecdysteroid phosphate phosphatase) | 1 | – | 3376 | 9014 | 1056 | 3088 | inactive |
| unc-13-4A | 1 | – | 2208 | 9603 | 1403 | 4346 | inactive |
| unc-13-4A | 2 | – | 1372 | 4956 | 950 | 2358 | inactive |
| unc-13-4A | 3 | Wg reporter activity raised | 5584 | 951 | 704 | 179 | inactive |
| unc-13-4A | 4 | – | 1260 | 8902 | 858 | 3252 | inactive |
| Myo95E (Myosin 95E) | 1 | – | 2309 | 5491 | 928 | 2272 | inactive |
| nop5 | 1 | – | 2170 | 6297 | 871 | 1057 | inactive |
| sano (serrano) | 1 | – | 13328 | – | 4067 | – | inactive |
| Ref1 (RNA and export factor binding protein 1) | 1 | – | 10117 | – | 3699 | – | inactive |
| Ref1 (RNA and export factor binding protein 1) | 2 | – | 5.69e5 | 6.71e5 | 2.05e5 | 2.23e5 | inactive |
| CG42264 | 1 | – | 19781 | – | 9481 | – | inactive |
| CG42264 | 2 | – | 18026 | – | 10468 | – | inactive |
| Ufd1 (Ubiquitin fusion-degradation 1-like) | 1 | – | 6336 | – | 3480 | – | inactive |
| CG14095 | 1 | – | 13003 | – | 3961 | – | inactive |
| CG15894 | 1 | – | 23792 | – | 10086 | – | inactive |
| CG15894 | 2 | – | 32514 | – | 6778 | – | inactive |
| CG33333 | 1 | – | 2292 | – | 1500 | – | inactive |
| CG13599 | 1 | – | 21904 | – | 15467 | – | inactive |
| DNAlig3 (DNA ligase 3) | 1 | – | 20924 | – | 4051 | – | inactive |
| Psc (Posterior sex combs) | 1 | – | 5925 | – | 1732 | – | inactive |
| CG8854 | 1 | – | 13676 | – | 2459 | – | inactive |
| Or13a (Odorant receptor 13a) | 1 | – | 14201 | – | 7975 | – | inactive |
| Lip4 (Lipase 4) | 1 | – | 1932 | 7200 | 656 | 3760 | inactive |
| ea (easter) | 1 | – | 15893 | – | 3636 | – | inactive |
| Cln7 | 1 | – | 6761 | – | 2256 | – | inactive |
| CG34342 | 1 | – | 2280 | 8561 | 1546 | 3565 | inactive |
| CG34342 | 2 | – | 5.13e5 | 4.37e5 | 1.59e5 | 236 | inactive |
| Ciz1 (Ciz1 zinc finger protein) | 1 | – | 3953 | – | 1376 | – | inactive |
| Eig71Eb (Ecdysone-induced gene 71Eb) | 1 | – | 9344 | – | 3872 | – | inactive |
| CG14070 | 1 | – | 2694 | 7888 | 1129 | 3653 | inactive |
| CG15046 | 1 | – | 29544 | – | 13784 | – | inactive |
| Tdc2 (Tyrosine decarboxylase 2) | 1 | – | 3144 | 5932 | 822 | 2104 | inactive |
